The data set is described as follows: general procedure: Fmoc solid-phase peptide synthesis; Rink-Amide ChemMatrix resin (0.49 mmol/g; main text 0.45 mmol/g); DIC/Oxyma Pure. Particulars: whole synthesis; for final HPLC purity: analytical RP-HPLC.
Where [1] appears, read: scale of the general procedure 0.1 mmol.
[2] abbreviates: scale of the general procedure 0.1 mmol, run 1.

“FITC Ahx Leu Thr Phe Glu His Tyr Trp Ala Gln Leu Thr Ser NH2”: the “final HPLC purity” value under setting [1] is given as greater than 99%. Where the note is “scale 0.1 mmol”, this substance came in with an isolated yield of 22%.
“Ac Leu Thr Phe R8 Glu Tyr Trp Ala Gln Cba S5 Ser Ala Ala NH2 [2]”: under setting [2], the “final HPLC purity” value was greater than 99% and the isolated yield was found to be 4%.
Turning to “FITC Ahx Leu Thr Ala S7 Glu Tyr Trp Ala Gln Cba S7 Ser Ala Ala NH2”, under setting [1], the “final HPLC purity” value is greater than 98% and the isolated yield worked out at 9%.
On to “Ac Leu Thr Ala S7 Glu Tyr Trp Ala Gln Cba S7 Ser Ala Ala NH2”, for which, under setting [1], the “final HPLC purity” value was greater than 99% and the isolated yield is 11%.
Regarding “Ac Leu Thr Phe Glu His Tyr Trp Ala Gln Leu Thr Ser NH2”, under setting [1], the “final HPLC purity” value was greater than 99%. This substance also yielded an isolated yield (scale 0.1 mmol) of 23%.
Take “FITC Ahx Leu Thr Phe R8 Glu Tyr Trp Ala Gln Cba S5 Ser Ala Ala NH2 [2FITC]”: under setting [2], the “final HPLC purity” value was greater than 99% and the isolated yield stood at 4%.
As to “FITC Ahx Leu Thr Phe S7 Glu Tyr Trp Ala Gln Cba S7 Ser Ala Ala NH2”, under setting [1], the “final HPLC purity” value is reported as greater than 97% and the isolated yield was 9%.
Take “Ac Leu Thr Phe R8 Glu Tyr Trp Ala Gln Cba S5 Ser Ala Ala NH2 [3]”: under setting [2], the “final HPLC purity” value is given as greater than 97% and the isolated yield is on record as 2%.
For “FITC Ahx Leu Thr Phe R8 Glu Tyr Trp Ala Gln Cba S5 Ser Ala Ala NH2 [3FITC]” the same measures were greater than 97% and 2%.
For “Ac Leu Thr Phe S7 Glu Tyr Trp Ala Gln Cba S7 Ser Ala Ala NH2”, under setting [1], the “final HPLC purity” value was greater than 97% and the isolated yield turned out to be 10%.

The values are drawn from article PMC11741006 (RSC Chemical Biology, 2025).
